Reference: patent US10386360B2, “Bio-microelectromechanical system transducer and associated methods” (University of Central Florida Research Foundation, Inc., priority 2009, dated 2019)
“Also recorded” adds a separate entry of the source. At least one compound was matched to its structure with a doubt left.

Test system: contractile myotubes
Assay: Veratridine added to electrically stimulated myotubes on microcantilevers, AFM laser detection
Type: cell-based, rat
Details: myotubes 10 days in culture, 1 Hz stimulus, veratridine final concentration 5 mM, injected at 84 seconds
Experimental: Skeletal muscle was dissected from the hind limb thighs of a rat fetus at embryonic day 18 (Charles River Laboratories, Wilmington, Mass.) according to a previously published protocol with some modification. Tissue samples were collected in a sterile 15-ml centrifuge tube containing 1 ml of calcium and magnesium free phosphate buffered saline (PBS). Tissue samples were enzymatically disassociated using 3 ml of 0.05% of trypsin-EDTA (Invitrogen, Carlsbad, Calif.) solution for 60 min in a 37° C. water bath with agitation of 100 rpm. After 60 min, the trypsin solution was removed and 6 ml of L15 media (Invitrogen, Carlsbad, Calif.) containing 10% fetal bovine serum (FBS) was added to terminate the trypsin action. The tissue was then mechanically triturated using a sterile narrow bore Pasteur pipette, allowed to settle for 3 min, and transferred to a 15-ml centrifuge tube. This was repeated three times. The dissociated tissue was then centrifuged at 300 g for 10 minutes at 4° C. on 6 ml of a 4% (wt/vol) cushion of bovine serum albumin (BSA). The pellet was resuspended in 10 ml L15+10% FBS and plated in uncoated 100-mm Petri dishes for 20-30 min depending on the amount of tissue, to allow contaminating fibroblasts to settle out. After 20-30 minutes the supernatant was layered on 6 ml of a 4% BSA cushion, and centrifuged at 300 g for 10 min at 4° C. […]

Structure (SMILES): COc1ccc(C(=O)O[C@H]2CC[C@@]3(C)[C@@H]4CC[C@H]5[C@]6(O)C[C@H](O)[C@@]7(O)[C@@H](CN8C[C@@H](C)CC[C@H]8[C@@]7(C)O)[C@]6(O)C[C@@]53O[C@]24O)cc1OC [veratridine]
- contractile behavior upon injection of veratridine: contracted in a tetanic manner; also recorded: contract in an asynchronous, tetanic, manner with a peak stress far beyond those of the synchronized contractions
